This list was built around the results that the source calls inconclusive (neither active nor inactive); the mix of calls is not that of the screen. Potencies beside an inconclusive call are fits to weak or partial responses and may not hold up. Activity calls are given as the source filed them. Calls come from the whole dose curve; as a rule, active = well fitted activation curve with a large enough effect; inconclusive = small, poorly fitted or top-dose-only effect; inactive = flat fitted curve, though single readings scatter.
test: Cell viability assay for measurement of the protective activity of small molecules against cell death caused by Zika virus infection in human astrocytoma cells; conditions: SNB-19 Zika virus cytoprotection, ATP luminescence, 72 h; series mostly up to 46.1 µM; protection from virus-induced cell death: at the top concentration
From the text: National Center for Advancing Translational Sciences [NCATS] Johns Hopkins University School of Medicine Florida State University Assay Overview: Zika virus infection causes cell death in certain cell types including human neural progenitor cells (hNPCs), astrocytes, and astrocytoma cell line (SNB-19). This cell viability assay measures the ATP content (level) in human astrocytoma cells (SNB-19) using a luminescence readout that is proportional to viable cell numbers. Decrease in the luminescence signal after Zika virus infection indicates the cell death caused by Zika virus. Small molecule inhibitors […] the decreased luminescence signal after Zika virus infection, indicating the protective effect of that small molecule on the cell death caused by Zika virus infection. This observed protective effect of small molecules against Zika virus induced cell death may result from inhibition of virus replication or cellular response to the virus infection.
Assay Protocol Summary: The medium for SNB-19 cells is composed of RPMI 1640 (ATCC, Cat.# 30-2001), 10% fetal bovine serum (FBS) (GE healthcare Life Sciences, Cat.# SH30071.03), and 1% Pen/Strep (Gibco, Cat.# 15140-122). The ATP content assay kit (PerkinElmer, Cat.# 6016731) was used to determine cell viability. The reagent was reconstituted and prepared as described by the manufacturer. Cells were seeded in 384- or 1536-well assay plates and cultured at 37 C with 5% CO2 for 16 to 20 hours. The typical cell seeding density in the 1536-well plate assay is 250 cells/well in 3ul medium for SNB-19 cells in tissue culture treated plates. Compounds were added to cells and incubated for one hour before addition of ZIKV solution to cells (2 FFU/cell). After incubation at 37 C with 5% CO2 for 72 hours, the reagent mixture of the ATP content assay kit was added to each well, followed by incubation at room temperature for 10 minutes. The luminescence intensity of the assay plates was measured using a ViewLux plate reader (PerkinElmer). […] The percentage inhibitions of the decreased cell viability by small molecule inhibitors were then calculated.

SMILES | Potency | protection from virus-induced cell death
O=C(Nc1ccc([N+](=O)[O-])cc1Cl)c1cc(Cl)ccc1O | active: 1.55 µM | 
CC(C(=O)O)c1ccc(-c2ccccc2)c(F)c1 (stereo not given) |  | inactive: -3.91%
CN1CC(=O)N/C1=N/C(=O)Nc1cccc(Cl)c1 | inconclusive: 0.548 µM [activator, partial curve, poor fit] | 
O=c1cc(-c2ccccc2)oc2cc(O)c(O)c(O)c12 |  | inactive: -7.06%
CC(=O)Oc1ccccc1C(=O)Nc1ncc([N+](=O)[O-])s1 | active: 31.6 µM | 
O=C(O)c1ccccc1Nc1cccc(C(F)(F)F)c1 |  | inactive: -13.1%
Nc1ccc(N=Nc2ccccc2)c(N)n1 | inconclusive: 27.5 µM [activator, single point] | 
Cc1ccc(O)c(N=Nc2ccccc2)n1 | inconclusive: 7.74 µM [activator, single point] | 
CC=CC[C@@H](C)C(=O)[C@H]1C(=O)N[C@@H](C(C)C)C(=O)N(C)CC(=O)N(C)[C@@H](CC(C)C)C(=O)N[C@@H](C(C)C)C(=O)N(C)[C@@H](CC(C)C)C(=O)N[C@@H](C)C(=O)N[C@H](C)C(=O)N(C)[C@@H](CC(C)C)C(=O)N(C)[C@@H](CC(C)C)C(=O)N(C)[C@@H](C(C)C)C(=O)N1C |  | inactive: -7.94%
O[C@@H](COc1cccc2ncccc12)CN1CCN(C2c3ccccc3[C@@H]3[C@H](c4ccccc42)C3(F)F)CC1 (stereo not given in full) | inconclusive: 19.5 µM [activator, single point] | 
Oc1cc(O)cc(/C=C/c2ccc(O)c(O)c2)c1 |  | inactive: -15.2%
O=S(=O)(O)c1ccc2nc(-c3ccccc3)[nH]c2c1 |  | inactive: -10.1%
O=S(=O)(O)CCSSCCS(=O)(=O)O | inconclusive: 3.46 µM [activator, partial curve, poor fit] | 
CC(C)(C)OC(=O)CN(Cc1ccc(Cl)cc1)Cc1ccc([N+](=O)[O-])s1 | active: 35.5 µM | 
c1ccc(CCNc2nc(-c3ccccc3)cs2)cc1 |  | inactive: 2.69%
COc1cc2nc(N3CCN(C(=O)C4CCCO4)CC3)nc(N)c2cc1OC (stereo not given) |  | inactive: -1.91%
[O-][n+]1ccccc1SSc1cccc[n+]1[O-] |  | inactive: -20.1% [at 88.3 µM]
CCCS(=O)c1ccc2nc(NC(=O)OC)[nH]c2c1 (stereo not given) |  | inactive: 4.13%
Cc1cc(O)c2ccccc2c1O |  | inactive: -17.9%
CN(C)CCCSc1ccccc1NC(=O)/C=C/c1ccccc1 | inconclusive: 19.5 µM [activator, partial curve] | 

SMILES | Potency | protection from virus-induced cell death
O=C1NC(=O)C(=Cc2ccc(-c3ccc(F)cc3)o2)S1 |  | inactive: -4.09%
O=C(Nc1ccc(OC(F)(F)F)cc1)c1sccc1NCc1ccnc2ccccc12 | inconclusive: 3.08 µM [activator, partial curve] | 
O=C1c2ccccc2C(=O)c2c(NCCc3ccc(O)cc3)ccc(NCCc3ccc(O)cc3)c21 | active: 19.5 µM | 
Cc1c(N)c(=O)n(-c2ccccc2)n1C | inconclusive: 0.975 µM [activator, partial curve, poor fit] | 
Cc1nc(-c2ccc(OCC(C)C)c(C#N)c2)sc1C(=O)O | inconclusive: 1.73 µM [activator, single point] | 
CN(C)c1ccc2cc(C(=O)N[C@@H](CCCN=C(N)CCl)C(=O)NCc3ccccc3)ccc2c1 | active: 4.35 µM | 
CC[C@]1(O)C[C@H]2CN(CCc3c([nH]c4ccccc34)[C@@](C(=O)OC)(c3cc4c(cc3OC)N(C=O)[C@H]3[C@@](O)(C(=O)OC)[C@H](OC(C)=O)[C@]5(CC)C=CCN6CC[C@]43[C@@H]65)C2)C1 | inconclusive: 4.89 µM [activator, partial curve] | 
CC(C)Oc1ccc2c(=O)c(-c3ccccc3)coc2c1 | inconclusive: 7.74 µM [activator, single point] | 
CCN1CCC(n2cc(CNc3cc(Cl)c4ncc(C#N)c(Nc5ccc(F)c(Cl)c5)c4c3)nn2)CC1 | inconclusive: 10.9 µM [activator, single point] | 
O=C(O)c1ccccc1NCCc1ccccc1 |  | inactive: 7.39%
Cc1[nH]c(C=C2C(=O)Nc3ccccc32)c(C)c1CCC(=O)O | inconclusive: 30.8 µM [activator, single point] | 
CC(=NNC(=S)N1CCC1)c1ccccn1 | active: 0.69 µM | 
CCCCC1C(=O)N(c2ccccc2)N(c2ccc(O)cc2)C1=O (stereo not given) | active: 19.5 µM | 
CC(C(=O)O)c1ccc2c(c1)[nH]c1ccc(Cl)cc12 (stereo not given) | inconclusive: 0.245 µM [activator, partial curve] | 
CN(C)c1cc(NC(=O)CNC(C)(C)C)c(O)c2c1C[C@@H]1C[C@H]3[C@H](N(C)C)C(=O)C(C(N)=O)=C(O)[C@@]3(O)C(=O)C1=C2O | inconclusive: 0.0308 µM [activator, full curve, poor fit] | 
CC1=C(CO)C(=O)O[C@@H]([C@@H](C)[C@H]2CC[C@H]3[C@@H]4C[C@H]5O[C@]56[C@@H](O)C=CC(=O)[C@]6(C)[C@@H]4CC[C@]23C)C1 | inconclusive: 0.975 µM [activator, partial curve] | 
CC(=Cc1ccccc1)C=C1SC(=S)N(CC(=O)O)C1=O | inconclusive: 5.48 µM [activator, single point] | 
CC(=O)Nc1ccc([C@H](C)C(=O)Nc2ncc(C(C)C)s2)cc1 | active: 6.15 µM | 
O=C(/C=C/c1ccc(O)cc1)c1ccc(O)cc1O | inconclusive: 3.08 µM [activator, partial curve, poor fit] | 
COc1ccc(-c2cc(=O)c3c(O)cc(O)cc3o2)cc1O |  | inactive: 10.6%

A few values from above:
`CCN1CCC(n2cc(CNc3cc(Cl)c4ncc(C#N)c(Nc5ccc(F)c(Cl)c5)c4c3)nn2)CC1` | Potency: inconclusive: 10.9 µM [activator, single point]
`CN(C)c1ccc2cc(C(=O)N[C@@H](CCCN=C(N)CCl)C(=O)NCc3ccccc3)ccc2c1` | Potency: active: 4.35 µM
